This is one part of the list. The main result of the screen is listed elsewhere. These columns were measured beside it and carry no call. Compounds called inactive in the main read-out are mostly missing here. Words in brackets tell the shape of the fitted curve; partial curves, single points and poor fits give uncertain potencies.

This assay is described as follows: qHTS Assay for Lipid Storage Modulators in Drosophila S3 Cells.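 As to cell number change: cells counted by Cell Tracker Red CMTPX staining in the red channel.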 The conditions noted are these: BODIPY lipid droplet fluorescence, 18-24 h; for cell number change: measured here: cell count max response, cells fed with added oleic acid. The procedure, abridged: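 Drosophila S3 cells got compounds at several concentrations plus oleic acid (400 uM solution). Laser-scanning cytometry with 488 nm excitation read lipid droplets at 500-530 nm and cells at 575-640 nm. Percent activity was relative to 20 uM Triacsin C.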
In general terms: Quantitative high-throughput screening tests each substance at several concentrations.

The mark [1] stands for this setting: measured here: lipid fluorescence (Fed channel) AC50, cells fed with added oleic acid.
The mark [2] stands for this setting: measured here: cell number channel AC50, cells fed with added oleic acid.

Regarding `Cc1nn(CC(=O)c2ccc(Br)s2)c(C)c1[N+](=O)[O-]`, the cell number change was -0.425%. For the same molecule, under setting [1], the half-maximal activity concentration (AC50) (commonly the midpoint of the concentration-response curve, whichever way the signal moves) was 18.4 µM [rising, partial curve, poor fit].

`Cc1cc(Br)ccc1OCCCCN1CCC(C)CC1`: the cell number change was -2.35%.

For `CCC(c1nnnn1CCOC)N1CCN(c2cccc(C(F)(F)F)c2)CC1` (centres undefined), the cell number change was -3.37%. Further, under setting [1], the AC50 was 29.1 µM [rising, single point].

On to `O=C(Cc1ccc(S(=O)(=O)N2CCCCC2)cc1)NCc1ccc(Cl)cc1`, for which the cell number change was -15.8%. Moreover, the concentration at half-maximal activity (AC50) under setting [1] was 29.1 µM [rising, single point].

Take `COc1ccc(CCC(=O)Nc2cc(Cl)ccc2N2CCN(C)CC2)cc1`: the cell number change was -29.6%. Further, the AC50 under setting [1] was 16.4 µM [falling, single point].

On to `Cc1ccc(-n2c(C)cc(C(=O)CSc3nncs3)c2C)cc1`, for which the cell number change is -31%. The AC50 under setting [2] was 3.26 µM [falling, full curve, poor fit]. Moreover, the AC50 under setting [1] is 1.3 µM [falling, full curve].

For the molecule `O=C(COc1ccc(C(=O)Nc2ccc(Cl)cc2)cc1)NCc1ccccc1`, the cell number change turned out to be 6.66%. The AC50 under setting [1] is 1.46 µM [rising, partial curve, poor fit].

Turning to `Cc1c(Cl)c([N+](=O)[O-])nn1CCCC(=O)N1CCN(c2ccccc2)CC1`, the cell number change was -15.4%. Besides, the AC50 under setting [1] is 13 µM [falling, partial curve].

`CCc1ccc(C(=O)Nc2nc(C)cs2)s1`: the cell number change was -16.9%.

For the molecule `C=CCc1cccc(CNc2nc3ccccc3n2CCC)c1O`, the cell number change was -38.8%. In addition, the AC50 under setting [2] is 25.9 µM [falling, partial curve]. In addition, the AC50 under setting [1] is 29.1 µM [falling, single point].

Turning to `COC(=O)c1cc(C(=O)NNC(=O)c2ccc3c(c2)OCO3)cc([N+](=O)[O-])c1`, the cell number change turned out to be 6.96%. Under setting [1], the AC50 was 2.91 µM [rising, single point].

For `COc1ccc(CN(CCCN2CCOCC2)S(=O)(=O)N(C)C)cc1OC`, the cell number change was -0.176%. Moreover, the AC50 under setting [1] was 0.58 µM [falling, full curve].

On to `CCCCN(CCCC)CC(O)Cn1c2ccccc2c(=O)c2ccccc21` (centres undefined), for which the cell number change amounted to 19.9%. Further, the AC50 under setting [2] was 4.61 µM [rising, full curve, poor fit].

In the case of `O=c1[nH][nH]c(-c2ccccc2)c1C=Nc1ccc(OC(F)(F)F)cc1`, the AC50 runs as follows: under setting [2], 1.84 µM [falling, partial curve]; under setting [1], 1.3 µM [falling, partial curve].

Consider `Nc1ncnc(Sc2ncccn2)c1[N+](=O)[O-]`, for which the cell number change was -74.7%. Also, the concentration at half-maximal activity (AC50) under setting [2] was 31.6 µM [falling, partial curve]. For the same molecule, the AC50 under setting [1] was 31.6 µM [falling, partial curve, poor fit].

For `CCOC(=O)C1=C(C)N=c2s/c(=C/c3ccc(OCC(=O)O)cc3)c(=O)n2C1c1cc(OC)c(OC)c(OC)c1` (centres undefined), the cell number change was -5.28%. Further, under setting [1], the AC50 was 18.4 µM [falling, single point].

On to `COc1cc(C(=S)N2CCCCC2)ccc1OCC(=O)Nc1ccc(F)cc1`, for which the cell number change was -57.9%. For the same molecule, the AC50 under setting [2] is 8.2 µM [falling, partial curve, poor fit]. For the same molecule, the AC50 under setting [1] is 6.51 µM [rising, single point].

Take `CCOC(=O)CC1=NN(c2ccccc2)C(=O)C1`: the cell number change stood at 10.2%. Besides, the AC50 under setting [2] is 3.26 µM [rising, single point]. Under setting [1], the AC50 is 6.51 µM [rising, single point].

Take `N#Cc1ccc(NC(=S)Nc2ccccc2)cc1`: the cell number change worked out at 20.7%. Also, the AC50 under setting [1] is 11.6 µM [rising, partial curve, poor fit].

Take `Cc1ccc(-n2ncc3c(=O)n(CC(=O)N4CCCCCC4)cnc32)cc1`: the cell number change stood at 22.3%. In addition, the AC50 under setting [1] is 14.6 µM [rising, single point].

`CC(=O)c1ccc(N2C(=NC(=O)COc3ccccc3)SC3CS(=O)(=O)CC32)cc1` (centres undefined): the cell number change is -13%. Also, under setting [1], the AC50 was 23.1 µM [rising, single point].

As to `O=C1CCc2cc(S(=O)(=O)Nc3ccc(C(F)(F)F)cc3)cc3c2N1CC3`, the cell number change came to 36.7%. Besides, under setting [2], the AC50 is 23.1 µM [rising, single point]. In addition, under setting [1], the AC50 is 7.31 µM [falling, single point].

As to `NC(CC(=O)NC(c1ccccc1)(c1ccccc1)c1ccccc1)C(=O)O` (centres undefined), the cell number change is -80.3%. In addition, the AC50 under setting [2] is 29.1 µM [falling, single point]. Besides, the AC50 under setting [1] is 25.9 µM [falling, single point].

Turning to `Cc1ccccc1NC(=O)c1cccc2nccnc12`, the cell number change is -25.4%. Further, the AC50 under setting [1] was 13 µM [falling, partial curve, poor fit].

In the case of `O=C(CCCn1c(SCC(=O)NC2CCCCC2)nc2ccccc2c1=O)NCC1CCCO1` (centres undefined), the cell number change was found to be 14.8%. Under setting [1], the concentration at half-maximal activity (AC50) is 1.03 µM [rising, partial curve].

With `COCCn1c(N)c(C(=O)OCc2ccccc2)c2nc3ccccc3nc21`, the cell number change turned out to be 21.1%. Besides, the AC50 under setting [2] was 0.0092 µM [rising, full curve, poor fit]. Also, the concentration at half-maximal activity (AC50) under setting [1] was 0.146 µM [rising, full curve].

Consider `C[N+]1(CC(=O)OCCCc2ccccc2)CCCC1`, for which the cell number change is -18.5%. Moreover, under setting [1], the AC50 was 1.3 µM [falling, full curve].

Regarding `CCOC(=O)C1=C(C)OC(N)=C(C#N)C1c1c(C)nn(-c2ccccc2)c1Cl` (centres undefined), the cell number change came out at 95.5%. Further, the AC50 under setting [2] is 2.06 µM [rising, full curve]. Under setting [1], the AC50 was 1.16 µM [rising, full curve].

As for `Cn1c(CCNC(=O)c2ccco2)nc2cc(NS(=O)(=O)c3ccc(Cl)cc3)ccc21`, the cell number change was -0.141%. Also, under setting [2], the AC50 was 3.66 µM [rising, single point]. For the same molecule, under setting [1], the AC50 is 2.91 µM [rising, partial curve].

As to `O=C(OCc1ccc(Cl)c(Cl)c1)c1ccccn1`, the cell number change is -2.21%. For the same molecule, under setting [1], the AC50 was 9.2 µM [rising, single point].

With `CCOc1cc(CNc2cccc3ccccc23)cc(Br)c1OCC(=O)NC(C)(C)C`, the AC50 under setting [2] is 0.0651 µM [rising, full curve, poor fit].

Consider `Cc1cc(Cl)c(S(=O)(=O)N2CCCCCC2)cc1OCC(=O)NC1CCCCC1`, for which, under setting [1], the AC50 was 6.51 µM [rising, single point].

On to `CN(C(=O)COc1ccc(Br)cc1Cl)C1CCCCC1`, for which the cell number change is -7.69%. Also, the AC50 under setting [1] is 1.64 µM [rising, partial curve, poor fit].

`Cc1ccc(CNC(=O)c2cccc3c2C(=O)c2ccc(N4CCCCC4)cc2S3(=O)=O)cc1`: the cell number change is -50.1%. For the same molecule, under setting [2], the AC50 was 0.0184 µM [falling, full curve, poor fit]. Further, the AC50 under setting [1] was 16.4 µM [falling, partial curve].

Turning to `CC(C)(C)c1ccc(C(=O)N/C(=C\c2cccc([N+](=O)[O-])c2)C(=O)Nc2cccc(C(=O)O)c2)cc1`, the cell number change was -9.39%. Besides, under setting [1], the AC50 is 0.58 µM [rising, single point].

As to `CCc1nn(CC(=O)NCc2cccnc2)c(=O)c2cc3occc3n12`, the cell number change is 10.6%. Besides, the AC50 under setting [1] was 6.51 µM [falling, single point].

Regarding `CCc1c(C(=O)Nc2cc(C(=O)OC)ccc2C)csc1C`, the cell number change was -2.97%. Further, under setting [1], the AC50 is 8.2 µM [rising, partial curve, poor fit].

Take `CCOC(=O)CN1C(=O)N[C@H](c2ccc(Br)cc2)C(C(C)=O)=C1C`: the cell number change was -0.802%. Also, under setting [1], the AC50 was 7.31 µM [rising, partial curve].

Take `CCOC(=O)c1c(NC(=O)CSc2ncnc3ccccc23)sc(C(C)=O)c1C`: the cell number change was 39.8%. For the same molecule, the AC50 under setting [2] was 7.31 µM [rising, partial curve]. In addition, the AC50 under setting [1] is 29.1 µM [rising, single point].

`CC(C)N1C(=O)/C(=C\c2nc3ccccc3c(=O)n2-c2ccccc2)c2ccccc21`: the cell number change was -47.7%. Besides, under setting [2], the AC50 was 18.4 µM [falling, single point]. Further, the concentration at half-maximal activity (AC50) under setting [1] is 29.1 µM [falling, single point].

For `CCSc1nnc2c(n1)OC1(CCCC1)Nc1ccccc1-2`, the cell number change is 36.9%. Further, under setting [2], the concentration at half-maximal activity (AC50) was 29.1 µM [rising, single point]. Further, under setting [1], the AC50 was 0.517 µM [rising, full curve].

`CCOc1ccccc1CN1CCN(CC2CC2)CC1CCO` (centres undefined): the cell number change was -1.57%. Moreover, the AC50 under setting [1] was 29.1 µM [rising, single point].

With `Cc1nn(Cc2ccccc2)c(C)c1C(=O)N1CCN(CC(=O)Nc2ccccc2Cl)CC1`, the cell number change was 30.1%. Moreover, under setting [2], the AC50 was 0.00411 µM [rising, full curve, poor fit]. In addition, under setting [1], the half-maximal activity concentration (AC50) is 25.9 µM [rising, single point].

`CCOc1cc(N2CCOCC2)c(OCC)cc1NC(=O)C1=COCCO1`: the cell number change was -6.81%. In addition, the AC50 under setting [1] is 3.66 µM [rising, partial curve, poor fit].

On to `CCC(=O)Nc1cccc(NC(=O)CSc2nnc(-c3ccc(NS(C)(=O)=O)cc3)n2CC)c1`, for which the cell number change was found to be 7.82%.

As for `Cn1c(C(=O)N2CCC(C(=O)NCc3ccccc3)CC2)cc2sccc21`, the cell number change was found to be 9.73%. The AC50 under setting [1] was 23.1 µM [rising, single point].

Consider `O=C(CSCc1c(F)cccc1Cl)Nc1cccnc1`, for which the cell number change stood at 1.51%. The AC50 under setting [2] was 0.366 µM [falling, full curve, poor fit]. Besides, the half-maximal activity concentration (AC50) under setting [1] is 0.411 µM [falling, full curve, poor fit].

Take `COc1ccc(N2CCN(C(=O)CC34CC5CC(CC(C5)C3)C4)CC2)c([N+](=O)[O-])c1`: the cell number change is 8.7%. In addition, the AC50 under setting [2] was 0.731 µM [falling, single point]. The AC50 under setting [1] was 13 µM [falling, partial curve].

With `Cc1nonc1NC(=O)CSc1nc2ccccc2cc1C#N`, the cell number change stood at 17.5%. In addition, the AC50 under setting [1] is 0.461 µM [rising, partial curve].

In the case of `O=C(CSC1=NCCS1)N1CCCC1`, the cell number change was -15.5%. The AC50 under setting [1] was 0.411 µM [falling, full curve].

Turning to `Nc1ccc2c(c1Cl)C(=O)c1ccc(N)c(Cl)c1C2=O`, the cell number change is -1.06%. In addition, the AC50 under setting [1] is 29.1 µM [rising, partial curve, poor fit].

`CCOc1ccc(NC(=O)C2CC(=O)OC2c2ccccc2)cc1` (centres undefined): the cell number change was -35.3%. Besides, under setting [1], the AC50 is 29.1 µM [falling, single point].

In the case of `COc1ccc(S(=O)(=O)N2CCOCC2)cc1Cl`, the cell number change is -48.7%. For the same molecule, under setting [2], the AC50 is 29.1 µM [falling, single point]. Further, the AC50 under setting [1] is 20.6 µM [falling, single point].

The values are drawn from PubChem BioAssay AID2685 (National Center for Advancing Translational Sciences (NCATS), 2010).
